This is an account of results in publication PMC10180911.

These are yes or no findings as the source states them, for the method shown.

The target in this assay is T1, SUN3, full-length, MYTH bait (Arabidopsis thaliana) (UniProt F4I316).
T1 sequence: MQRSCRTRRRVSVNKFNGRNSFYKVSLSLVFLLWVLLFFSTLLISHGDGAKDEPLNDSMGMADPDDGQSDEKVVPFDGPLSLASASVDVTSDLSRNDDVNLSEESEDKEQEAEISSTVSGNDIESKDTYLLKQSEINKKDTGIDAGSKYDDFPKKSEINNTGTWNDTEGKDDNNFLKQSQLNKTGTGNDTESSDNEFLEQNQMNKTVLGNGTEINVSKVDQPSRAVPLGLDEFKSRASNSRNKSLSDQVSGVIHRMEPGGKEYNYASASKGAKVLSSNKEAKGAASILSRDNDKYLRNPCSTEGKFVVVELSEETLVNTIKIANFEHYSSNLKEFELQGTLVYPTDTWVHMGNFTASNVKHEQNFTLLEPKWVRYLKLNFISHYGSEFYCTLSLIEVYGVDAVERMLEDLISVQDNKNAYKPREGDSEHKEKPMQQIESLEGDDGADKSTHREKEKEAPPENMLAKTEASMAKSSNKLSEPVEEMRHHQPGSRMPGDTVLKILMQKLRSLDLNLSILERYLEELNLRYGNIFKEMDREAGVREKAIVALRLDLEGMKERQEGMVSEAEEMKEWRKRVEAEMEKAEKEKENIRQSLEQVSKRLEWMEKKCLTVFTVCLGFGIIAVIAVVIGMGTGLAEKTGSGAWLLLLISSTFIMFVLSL
In words: two-hybrid; split-ubiquitin MYTH, drop tests of named pairs on permissive (YNB -Leu -Trp) and test medium (YNB -Leu -Trp -Ade -His); strain NMY51; bait plasmid pBT3N, prey plasmid pPR3N.

Turning to “MYB domain of maMYB, MYTH prey (Arabidopsis thaliana) (domain or fragment)”, the binding entry is reported as “no binding”.
